{"source": "patent US10449230B2", "about": "(The Regents of the University of California, priority 2016, dated 2019)", "test": "general procedure: peptide synthesis; HATU/DIEA (4a); PyBrop/DIEA (4b)", "conditions": "TFA salt; for conjugation yield: conjugation step", "note": "Strings that start with PEPTIDE1 are HELM notation: dots part the residues, brackets hold end groups and non-standard residues.", "data": [{"substance": "Boc-PMBN", "values": [{"measurement": "step yield", "setting": "late stage modification step", "result": 69, "unit": "%"}]}, {"substance": "PEPTIDE1{[BiotPEG3TzBu].[Dab].T.[Dab].[Dab].[Dab].[dF].L.[Dab].[Dab].T}$PEPTIDE1,PEPTIDE1,5:R3-11:R2$$$V2.0", "values": [{"measurement": "conjugation yield", "result": 48, "unit": "%"}]}, {"substance": "PEPTIDE1{[BiotPEG3TzBu].[GDab].T.[GDab].[Dab].[GDab].[dF].L.[GDab].[GDab].T}$PEPTIDE1,PEPTIDE1,5:R3-11:R2$$$V2.0", "values": [{"measurement": "conjugation yield", "result": 25, "unit": "%"}]}]}
